This test concerns the target T1, Stimulator of interferon genes (STING) (mouse (endogenous in BMDC)) (UniProt Q3TBT3).
T1 sequence: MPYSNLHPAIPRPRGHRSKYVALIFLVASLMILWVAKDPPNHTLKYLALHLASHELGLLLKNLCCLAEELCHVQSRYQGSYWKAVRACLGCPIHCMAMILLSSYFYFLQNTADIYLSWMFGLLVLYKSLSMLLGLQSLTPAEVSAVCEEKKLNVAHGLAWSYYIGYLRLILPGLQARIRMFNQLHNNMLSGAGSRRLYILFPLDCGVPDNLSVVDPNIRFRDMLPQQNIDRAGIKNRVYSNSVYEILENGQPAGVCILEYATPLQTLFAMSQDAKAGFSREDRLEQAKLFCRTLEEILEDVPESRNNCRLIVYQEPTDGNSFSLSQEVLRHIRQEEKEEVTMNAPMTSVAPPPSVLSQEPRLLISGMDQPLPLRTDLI
Nature of the test: co-IP.

These are yes or no findings as the source states them, for the method shown. Binding seen in cells or lysates may run through a third protein. Some entries that bind do so weakly or less than the wild type.

As to “LYN, a member of Src family kinases (from UniProt P25911-1 1-512)”, the binding result is recorded as “binds”.

For the origin of these results see doi:10.1101/810192.
